Record: PubChem BioAssay AID743454 (Peter MacCallum Cancer Centre, 2014)
Shown is one part, drawn at random, of about 18,000 deposited reagents. 450 of them (2.5%) count as active. 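Single biological run; no consistent viability z cut-off exists, so the class columns, not z-scores, define the calls.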 Reagent sequences are not shown.

Assay: 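Search for knock-downs that restore vorinostat killing in resistant colon cancer cells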 (primary screen)
System: human HCT116-VR colon cancer cells, selected for vorinostat resistance
Knock-down reagent: siRNA pool against human genes, 40 nM siRNA pool
Timing: vorinostat for 24 h, read-out about 72 h after transfection
Conditions: vorinostat at 2.5 µM final
Read-out: 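Two measures, CellTiter-Fluor viability and luminescent caspase 3/7 activity, each as fold change against same-plate mock wells, mean of duplicates, then screen-wide robust z-score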
Direction: viability robust z-score: higher = more viable cells than screen typical; caspase robust z-score: higher = more caspase 3/7 activity than screen typical
Rule for the call: 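Hits are knock-downs in viability class RV1/RV2 or caspase class CA1/CA2, excluding ones that killed cells in the no-drug cell-count arm; hits then retested with single siRNAs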

no.	target	viability hit class	caspase hit class	viability robust z-score	caspase robust z-score	Call
1	IGSF11	no change	no change	0.26	-0.05	inactive
2	FOXQ1	no change	no change	0.07	0.02	inactive
3	ERBIN	no change	no change	2.26	-0.17	inactive
4	AKAP17A	no change	no change	-0.6	-0.22	inactive
5	WDR44	no change	no change	0.66	-0.33	inactive
6	NALF2	no change	no change	0.78	-0.98	inactive
7	KBTBD3	no change	no change	0.3	0.24	inactive
8	NEUROG2	no change	no change	0.78	0.48	inactive
9	MTHFD2L	no change	no change	0.03	0.34	inactive
10	MUS81	no change	no change	0.53	0.1	inactive
11	PLAAT4	no change	no change	-0.22	4.88	inactive
12	OTUD3	no change	no change	-0.34	0.46	inactive
13	RPRD2	no change	no change	0.19	-0.1	inactive
14	SYTL4	no change	no change	0.84	3.71	inactive
15	ALDH3A2	no change	no change	1.17	-0.34	inactive
16	PWP2	no change	no change	-2.26	1.48	inactive
17	PAXIP1	no change	no change	0.92	-0.66	inactive
18	LMNTD1	no change	no change	-0.56	-0.16	inactive
19	AP2A2	no change	no change	-1.77	1.02	inactive
20	LYST	no change	no change	0.76	0.97	inactive
21	FAM153CP	no change	no change	-1.45	-0.72	inactive
22	ZG16	no change	no change	-0.54	3.71	inactive
23	CIP2A	no change	no change	-0.15	-0.06	inactive
